Experimental data from the supplement of paper PMC12823440, “Inhibitors supercharge kinase turnover through native proteolytic circuits” (Nature, 2025).
Counter-ions that a name gives are not always drawn. Some of the results follow. The calls rarely recur for the same compound in another form.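 Kinases, fused to nanoluciferase, were expressed in K562 cells; luminescence was measured every 4 h from 2 to 18 h as percent of control (DMSO = 100%, positive control = 0%). A time point is decreased if signal falls significantly (2 sigma). Hits were called by the authors by a rule that is not shown; the count of time points alone does not decide it.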

Chains of the proteins cited; added tags and fusions are not shown. Lines headed by an entry give the natural chain unless they say otherwise; changes in a name come on top.
UniProt Q06187: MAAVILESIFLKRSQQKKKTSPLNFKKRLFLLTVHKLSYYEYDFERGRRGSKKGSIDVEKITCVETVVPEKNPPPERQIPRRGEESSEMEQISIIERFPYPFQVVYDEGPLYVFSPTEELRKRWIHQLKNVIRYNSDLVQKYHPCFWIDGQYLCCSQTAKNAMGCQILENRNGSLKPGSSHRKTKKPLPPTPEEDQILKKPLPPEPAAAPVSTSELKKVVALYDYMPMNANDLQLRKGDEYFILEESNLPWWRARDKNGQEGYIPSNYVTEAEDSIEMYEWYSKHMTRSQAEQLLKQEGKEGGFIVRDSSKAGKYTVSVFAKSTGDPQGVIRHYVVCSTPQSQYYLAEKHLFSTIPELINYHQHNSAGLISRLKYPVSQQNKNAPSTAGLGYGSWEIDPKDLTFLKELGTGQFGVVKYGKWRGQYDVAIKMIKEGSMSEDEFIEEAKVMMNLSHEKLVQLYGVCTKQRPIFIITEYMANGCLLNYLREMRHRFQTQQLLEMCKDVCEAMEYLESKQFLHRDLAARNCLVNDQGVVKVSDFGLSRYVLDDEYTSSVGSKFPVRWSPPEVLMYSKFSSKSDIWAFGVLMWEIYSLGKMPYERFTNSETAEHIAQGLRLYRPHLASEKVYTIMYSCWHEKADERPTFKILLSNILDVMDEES
UniProt Q9UQM7, whole entry: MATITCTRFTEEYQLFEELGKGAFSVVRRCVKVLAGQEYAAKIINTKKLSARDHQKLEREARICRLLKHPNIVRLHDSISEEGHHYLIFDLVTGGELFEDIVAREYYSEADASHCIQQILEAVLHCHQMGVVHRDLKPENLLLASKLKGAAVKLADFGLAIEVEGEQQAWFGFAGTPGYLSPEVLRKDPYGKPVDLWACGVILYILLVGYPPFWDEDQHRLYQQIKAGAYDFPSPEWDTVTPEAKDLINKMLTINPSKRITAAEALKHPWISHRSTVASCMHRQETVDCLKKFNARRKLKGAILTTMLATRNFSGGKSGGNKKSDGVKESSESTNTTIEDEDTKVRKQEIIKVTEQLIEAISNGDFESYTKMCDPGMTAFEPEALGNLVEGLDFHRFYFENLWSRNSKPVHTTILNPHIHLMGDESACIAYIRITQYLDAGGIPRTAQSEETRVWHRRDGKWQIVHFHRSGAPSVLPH
UniProt Q13555: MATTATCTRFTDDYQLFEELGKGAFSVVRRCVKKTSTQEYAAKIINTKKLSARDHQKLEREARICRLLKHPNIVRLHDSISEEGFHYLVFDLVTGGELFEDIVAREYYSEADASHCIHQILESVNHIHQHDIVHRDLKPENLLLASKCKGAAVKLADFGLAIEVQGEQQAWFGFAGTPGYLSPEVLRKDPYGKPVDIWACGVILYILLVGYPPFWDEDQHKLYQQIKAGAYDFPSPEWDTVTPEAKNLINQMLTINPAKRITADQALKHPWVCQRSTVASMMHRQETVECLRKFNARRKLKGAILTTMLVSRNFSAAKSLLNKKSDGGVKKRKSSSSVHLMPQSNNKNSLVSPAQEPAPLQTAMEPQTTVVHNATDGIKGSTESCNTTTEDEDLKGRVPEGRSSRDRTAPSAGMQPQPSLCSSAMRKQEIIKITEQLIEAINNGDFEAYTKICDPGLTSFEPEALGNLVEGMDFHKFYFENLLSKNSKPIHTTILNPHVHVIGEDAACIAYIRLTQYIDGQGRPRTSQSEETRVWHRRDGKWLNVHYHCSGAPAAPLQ
UniProt Q00526: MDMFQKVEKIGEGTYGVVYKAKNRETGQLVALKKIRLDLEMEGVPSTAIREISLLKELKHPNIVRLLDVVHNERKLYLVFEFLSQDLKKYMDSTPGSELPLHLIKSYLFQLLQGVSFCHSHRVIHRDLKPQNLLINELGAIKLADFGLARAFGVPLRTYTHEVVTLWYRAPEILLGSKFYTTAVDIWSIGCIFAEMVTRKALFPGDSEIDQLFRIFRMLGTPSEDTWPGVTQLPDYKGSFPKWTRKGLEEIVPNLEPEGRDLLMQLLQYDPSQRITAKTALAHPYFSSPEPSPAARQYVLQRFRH
UniProt Q00535, whole entry, looked up: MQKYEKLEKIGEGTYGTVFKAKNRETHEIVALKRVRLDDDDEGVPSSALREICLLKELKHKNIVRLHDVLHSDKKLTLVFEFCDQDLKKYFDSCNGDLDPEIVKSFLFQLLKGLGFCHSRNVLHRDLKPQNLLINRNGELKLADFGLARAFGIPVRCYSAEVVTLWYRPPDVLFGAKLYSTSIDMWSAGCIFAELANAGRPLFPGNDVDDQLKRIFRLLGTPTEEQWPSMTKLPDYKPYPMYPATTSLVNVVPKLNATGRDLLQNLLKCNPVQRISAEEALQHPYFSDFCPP
UniProt P50613: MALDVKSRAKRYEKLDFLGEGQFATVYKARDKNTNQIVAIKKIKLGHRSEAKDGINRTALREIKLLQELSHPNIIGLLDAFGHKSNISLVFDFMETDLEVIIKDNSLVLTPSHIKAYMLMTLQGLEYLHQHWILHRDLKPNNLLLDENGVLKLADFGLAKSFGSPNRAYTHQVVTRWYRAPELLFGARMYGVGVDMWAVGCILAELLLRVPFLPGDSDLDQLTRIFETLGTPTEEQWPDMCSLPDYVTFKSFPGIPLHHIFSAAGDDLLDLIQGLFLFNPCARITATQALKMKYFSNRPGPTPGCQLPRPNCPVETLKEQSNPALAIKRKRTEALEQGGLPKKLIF
UniProt P50750, whole entry: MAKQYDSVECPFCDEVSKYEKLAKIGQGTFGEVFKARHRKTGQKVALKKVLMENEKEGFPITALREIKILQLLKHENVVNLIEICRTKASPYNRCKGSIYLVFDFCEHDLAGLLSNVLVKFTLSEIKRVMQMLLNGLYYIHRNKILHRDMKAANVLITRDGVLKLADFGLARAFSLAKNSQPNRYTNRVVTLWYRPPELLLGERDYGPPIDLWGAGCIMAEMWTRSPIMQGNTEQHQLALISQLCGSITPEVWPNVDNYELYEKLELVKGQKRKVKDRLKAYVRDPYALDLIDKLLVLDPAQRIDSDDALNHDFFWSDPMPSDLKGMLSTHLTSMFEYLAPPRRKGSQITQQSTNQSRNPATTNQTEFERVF
UniProt P07333, whole entry: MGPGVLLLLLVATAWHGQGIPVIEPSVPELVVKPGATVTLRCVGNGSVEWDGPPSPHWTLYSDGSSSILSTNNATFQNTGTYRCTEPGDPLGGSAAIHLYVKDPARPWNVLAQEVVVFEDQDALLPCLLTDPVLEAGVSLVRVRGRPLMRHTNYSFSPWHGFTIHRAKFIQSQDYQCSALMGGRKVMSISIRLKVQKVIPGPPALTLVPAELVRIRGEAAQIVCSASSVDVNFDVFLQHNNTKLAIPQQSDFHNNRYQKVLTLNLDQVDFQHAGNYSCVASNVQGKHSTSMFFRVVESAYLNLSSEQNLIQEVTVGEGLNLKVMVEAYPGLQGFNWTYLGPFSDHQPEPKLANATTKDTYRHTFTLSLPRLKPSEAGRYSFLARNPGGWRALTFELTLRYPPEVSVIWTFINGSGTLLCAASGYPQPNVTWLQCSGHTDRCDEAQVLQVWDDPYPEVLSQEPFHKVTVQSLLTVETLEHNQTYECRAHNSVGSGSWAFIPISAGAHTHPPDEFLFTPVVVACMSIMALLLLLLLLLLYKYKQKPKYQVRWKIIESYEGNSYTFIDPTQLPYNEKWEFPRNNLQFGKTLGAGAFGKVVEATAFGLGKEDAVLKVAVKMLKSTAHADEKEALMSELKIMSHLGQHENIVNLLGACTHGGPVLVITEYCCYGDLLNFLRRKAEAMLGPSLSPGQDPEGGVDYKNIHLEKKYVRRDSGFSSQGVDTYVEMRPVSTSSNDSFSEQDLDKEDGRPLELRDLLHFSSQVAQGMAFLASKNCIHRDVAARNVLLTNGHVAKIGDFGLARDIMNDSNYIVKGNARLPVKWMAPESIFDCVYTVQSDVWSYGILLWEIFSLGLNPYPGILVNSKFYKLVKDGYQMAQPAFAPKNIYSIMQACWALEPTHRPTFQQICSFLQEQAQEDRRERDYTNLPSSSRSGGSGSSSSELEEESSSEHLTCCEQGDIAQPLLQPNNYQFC
UniProt P48729: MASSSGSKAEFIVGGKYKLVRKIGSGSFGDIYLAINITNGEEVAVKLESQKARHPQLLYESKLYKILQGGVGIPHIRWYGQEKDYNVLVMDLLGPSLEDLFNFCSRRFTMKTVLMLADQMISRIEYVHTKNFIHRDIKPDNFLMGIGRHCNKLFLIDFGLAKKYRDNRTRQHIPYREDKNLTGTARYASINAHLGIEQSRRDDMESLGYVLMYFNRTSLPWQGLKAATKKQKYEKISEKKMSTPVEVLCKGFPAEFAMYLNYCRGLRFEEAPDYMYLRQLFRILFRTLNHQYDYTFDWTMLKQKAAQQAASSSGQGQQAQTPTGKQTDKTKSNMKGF
UniProt Q08345: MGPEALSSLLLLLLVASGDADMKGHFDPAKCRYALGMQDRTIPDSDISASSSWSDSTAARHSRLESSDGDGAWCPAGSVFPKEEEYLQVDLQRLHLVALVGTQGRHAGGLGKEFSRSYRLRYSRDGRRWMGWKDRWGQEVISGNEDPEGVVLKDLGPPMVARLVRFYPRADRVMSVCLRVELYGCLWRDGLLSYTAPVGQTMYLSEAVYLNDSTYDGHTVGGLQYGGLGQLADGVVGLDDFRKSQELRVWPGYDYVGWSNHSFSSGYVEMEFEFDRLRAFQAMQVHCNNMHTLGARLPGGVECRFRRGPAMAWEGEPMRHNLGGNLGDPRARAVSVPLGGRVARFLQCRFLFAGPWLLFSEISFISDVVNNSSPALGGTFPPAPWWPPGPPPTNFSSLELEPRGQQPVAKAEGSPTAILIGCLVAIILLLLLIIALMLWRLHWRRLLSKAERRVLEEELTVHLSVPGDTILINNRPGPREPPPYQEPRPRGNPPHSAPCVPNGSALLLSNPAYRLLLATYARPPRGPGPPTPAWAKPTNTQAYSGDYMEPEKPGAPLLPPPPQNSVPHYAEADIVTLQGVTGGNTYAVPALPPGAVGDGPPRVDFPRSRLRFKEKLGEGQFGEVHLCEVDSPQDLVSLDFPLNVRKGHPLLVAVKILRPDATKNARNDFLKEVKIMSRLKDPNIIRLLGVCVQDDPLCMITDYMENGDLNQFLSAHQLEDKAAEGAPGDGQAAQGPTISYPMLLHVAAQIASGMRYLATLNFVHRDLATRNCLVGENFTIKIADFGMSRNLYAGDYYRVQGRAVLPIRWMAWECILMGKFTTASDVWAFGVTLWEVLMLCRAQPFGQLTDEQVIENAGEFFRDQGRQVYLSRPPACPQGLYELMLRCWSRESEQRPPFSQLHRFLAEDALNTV
UniProt Q9Y463, whole entry, looked up: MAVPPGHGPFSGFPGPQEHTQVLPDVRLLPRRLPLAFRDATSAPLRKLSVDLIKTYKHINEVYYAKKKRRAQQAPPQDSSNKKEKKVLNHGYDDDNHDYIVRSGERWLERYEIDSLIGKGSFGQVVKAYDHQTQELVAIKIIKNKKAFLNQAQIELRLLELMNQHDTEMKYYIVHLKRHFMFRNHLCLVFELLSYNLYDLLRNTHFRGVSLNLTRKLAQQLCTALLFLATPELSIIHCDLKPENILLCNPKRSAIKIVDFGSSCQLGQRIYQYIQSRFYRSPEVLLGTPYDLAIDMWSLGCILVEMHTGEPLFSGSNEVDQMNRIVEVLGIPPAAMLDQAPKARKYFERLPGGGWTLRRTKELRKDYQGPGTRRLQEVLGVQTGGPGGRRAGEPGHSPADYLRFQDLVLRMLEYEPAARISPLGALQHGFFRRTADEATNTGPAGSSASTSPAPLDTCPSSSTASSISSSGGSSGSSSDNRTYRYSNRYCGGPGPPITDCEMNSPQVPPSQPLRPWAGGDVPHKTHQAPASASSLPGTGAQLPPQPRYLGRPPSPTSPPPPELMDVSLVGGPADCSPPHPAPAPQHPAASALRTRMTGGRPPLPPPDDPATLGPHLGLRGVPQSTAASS
UniProt Q92630: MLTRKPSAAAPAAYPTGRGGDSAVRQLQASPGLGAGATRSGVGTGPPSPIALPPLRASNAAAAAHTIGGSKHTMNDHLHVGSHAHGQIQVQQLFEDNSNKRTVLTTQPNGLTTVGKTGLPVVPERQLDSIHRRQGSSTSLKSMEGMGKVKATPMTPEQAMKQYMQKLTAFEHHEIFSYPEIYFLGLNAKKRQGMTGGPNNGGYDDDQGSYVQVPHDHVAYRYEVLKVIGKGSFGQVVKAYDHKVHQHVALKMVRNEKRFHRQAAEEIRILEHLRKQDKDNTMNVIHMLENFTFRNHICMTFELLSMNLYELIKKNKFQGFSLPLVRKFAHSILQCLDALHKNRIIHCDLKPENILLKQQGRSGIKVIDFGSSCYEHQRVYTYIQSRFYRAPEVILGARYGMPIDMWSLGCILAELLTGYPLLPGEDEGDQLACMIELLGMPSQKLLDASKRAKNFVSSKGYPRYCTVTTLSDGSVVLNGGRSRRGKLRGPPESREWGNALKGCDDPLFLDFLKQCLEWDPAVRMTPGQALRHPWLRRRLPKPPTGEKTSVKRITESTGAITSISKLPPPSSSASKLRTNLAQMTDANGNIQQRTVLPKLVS

Key:
Assay in all cases: kinase-Nluc reporter destabilization hit call (1 = scored as downregulated) (binary); higher = compound decreases kinase abundance
Details in all cases: K562; 2-18 h
BRAF_V600E = test system: BRAF_V600E
BTK = BTK (UniProt Q06187)
CAMK2A = CAMK2A (UniProt Q9UQM7)
CAMK2G = CAMK2G (UniProt Q13555)
CDK10 = CDK10 (UniProt Q15131)
CDK2 = CDK2 (UniProt P24941)
CDK3 = CDK3 (UniProt Q00526)
CDK4 = CDK4 (UniProt P11802)
CDK5 = CDK5 (UniProt Q00535)
CDK6 = CDK6 (UniProt Q00534)
CDK7 = CDK7 (UniProt P50613)
CDK9 = CDK9 (UniProt P50750)
CHEK2 = CHEK2 (UniProt O96017)
CSF1R = CSF1R (UniProt P07333)
CSK = CSK (UniProt P41240)
CSNK1A1 = CSNK1A1 (UniProt P48729)
CSNK1D = CSNK1D (UniProt P48730)
DDR1 = DDR1 (UniProt Q08345)
DYRK1B = DYRK1B (UniProt Q9Y463)
DYRK2 = DYRK2 (UniProt Q92630)

Measured: kinase-Nluc reporter destabilization hit call

CN(C)C(=O)Cn1cc(-c2ccc(-c3cncc4ccccc34)cc2)cn1 (10 µM)
inactive: BRAF_V600E 0 | BTK 0 | CAMK2A 0 | CAMK2G 0 | CDK10 = 0 | CDK2 = 0 | CDK3 = 0 | CDK4 = 0 | CDK5 = 0 | CDK6 = 0 | CDK7 = 0 | CDK9 = 0 | CHEK2 = 0 | CSF1R 0 | CSK 0 | CSNK1A1 = 0 | CSNK1D 0 | DDR1 = 0 | DYRK1B 0 | DYRK2 = 0

c1cc(-c2c[nH]c3nccc(N4CCC[C@@]5(CCCCN5)C4)c23)ncn1 (10 µM)
inactive: BRAF_V600E 0 | BTK 0 | CAMK2A 0 | CAMK2G 0 | CDK10 = 0 | CDK2 = 0 | CDK3 = 0 | CDK4 = 0 | CDK5 = 0 | CDK6 = 0 | CDK7 = 0 | CDK9 = 0 | CHEK2 = 0 | CSF1R 0 | CSK 0 | CSNK1A1 = 0 | CSNK1D 0 | DDR1 = 0 | DYRK1B 0 | DYRK2 = 0

Cn1cc(-c2ccc3nnc(Sc4ccc5ncccc5c4)n3n2)cn1 (10 µM)
inactive: BRAF_V600E 0 | BTK 0 | CAMK2A 0 | CAMK2G 0 | CDK10 = 0 | CDK2 = 0 | CDK3 = 0 | CDK4 = 0 | CDK5 = 0 | CDK6 = 0 | CDK7 = 0 | CDK9 = 0 | CHEK2 = 0 | CSF1R 0 | CSK 0 | CSNK1A1 = 0 | CSNK1D 0 | DDR1 = 0 | DYRK1B 0 | DYRK2 = 0

Cc1[nH]c(/C=C2\C(=O)Nc3ccc(F)cc32)c(C)c1C(=O)N[C@H]1CCN(C(=O)N(C)C)C1 [Vorolanib] (10 µM)
inactive: BRAF_V600E 0 | BTK 0 | CAMK2A 0 | CAMK2G 0 | CDK10 = 0 | CDK2 = 0 | CDK3 = 0 | CDK4 = 0 | CDK5 = 0 | CDK6 = 0 | CDK7 = 0 | CDK9 = 0 | CHEK2 = 0 | CSF1R 0 | CSK 0 | CSNK1A1 = 0 | CSNK1D 0 | DDR1 = 0 | DYRK1B 0 | DYRK2 = 0

Cn1cc(-c2cnn3c(N)c(Br)c([C@@H]4CCCNC4)nc23)cn1 (2.5 µM)
inactive: BRAF_V600E 0 | BTK 0 | CAMK2A 0 | CAMK2G 0 | CDK10 = 0 | CDK2 = 0 | CDK3 = 0 | CDK4 = 0 | CDK5 = 0 | CDK6 = 0 | CDK7 = 0 | CDK9 = 0 | CHEK2 = 0 | CSF1R 0 | CSK 0 | CSNK1A1 = 0 | CSNK1D 0 | DDR1 = 0 | DYRK1B 0 | DYRK2 = 0

Cn1cnc(Cn2ccc3ccc(CNCc4[nH]c5ccccc5c4[C@H]4NC(=O)c5ccc(O)cc54)cc32)c1 (10 µM)
inactive: BRAF_V600E 0 | BTK 0 | CAMK2A 0 | CAMK2G 0 | CDK10 = 0 | CDK2 = 0 | CDK3 = 0 | CDK4 = 0 | CDK5 = 0 | CDK6 = 0 | CDK7 = 0 | CDK9 = 0 | CHEK2 = 0 | CSF1R 0 | CSK 0 | CSNK1A1 = 0 | CSNK1D 0 | DDR1 = 0 | DYRK1B 0 | DYRK2 = 0

CN(C)CCSSCCNC(=O)C1CCN(C(=O)CSc2ccc(Cl)cc2)CC1 (10 µM)
inactive: BRAF_V600E 0 | BTK 0 | CAMK2A 0 | CAMK2G 0 | CDK10 = 0 | CDK2 = 0 | CDK3 = 0 | CDK4 = 0 | CDK5 = 0 | CDK6 = 0 | CDK7 = 0 | CDK9 = 0 | CHEK2 = 0 | CSF1R 0 | CSK 0 | CSNK1A1 = 0 | CSNK1D 0 | DDR1 = 0 | DYRK1B 0 | DYRK2 = 0

CCOC(=O)N1CCN(C(=O)[C@H](Cc2cccc(C(=N)N)c2)NS(=O)(=O)c2c(C(C)C)cc(C(C)C)cc2C(C)C)CC1 (10 µM)
inactive: BRAF_V600E 0 | BTK 0 | CAMK2A 0 | CAMK2G 0 | CDK10 = 0 | CDK2 = 0 | CDK3 = 0 | CDK4 = 0 | CDK5 = 0 | CDK6 = 0 | CDK7 = 0 | CDK9 = 0 | CHEK2 = 0 | CSF1R 0 | CSK 0 | CSNK1A1 = 0 | CSNK1D 0 | DDR1 = 0 | DYRK1B 0 | DYRK2 = 0

CCS(=O)(=O)Nc1ccc2[nH]c(O)c(C(=Nc3ccc(CN4CCCCC4)cc3)c3ccccc3)c2c1 [Hesperadin] (2.5 µM)
inactive: BRAF_V600E 0 | BTK 0 | CAMK2A 0 | CAMK2G 0 | CDK10 = 0 | CDK2 = 0 | CDK3 = 0 | CDK4 = 0 | CDK5 = 0 | CDK6 = 0 | CDK7 = 0 | CDK9 = 0 | CHEK2 = 0 | CSF1R 0 | CSK 0 | CSNK1A1 = 0 | CSNK1D 0 | DDR1 = 0 | DYRK1B 0 | DYRK2 = 0

O=C(CSC1=NCCN1)NC1CCCCCC1 [ICCB-19 (hydrochloride)] (2.5 µM)
inactive: BRAF_V600E 0 | BTK 0 | CAMK2A 0 | CAMK2G 0 | CDK10 = 0 | CDK2 = 0 | CDK3 = 0 | CDK4 = 0 | CDK5 = 0 | CDK6 = 0 | CDK7 = 0 | CDK9 = 0 | CHEK2 = 0 | CSF1R 0 | CSK 0 | CSNK1A1 = 0 | CSNK1D 0 | DDR1 = 0 | DYRK1B 0 | DYRK2 = 0

COc1cc(/C=C/C(=O)NCC(O)c2ccc(O)cc2)ccc1O (stereo unspecified) [N-Feruloyloctopamine] (2.5 µM)
inactive: BRAF_V600E 0 | BTK 0 | CAMK2A 0 | CAMK2G 0 | CDK10 = 0 | CDK2 = 0 | CDK3 = 0 | CDK4 = 0 | CDK5 = 0 | CDK6 = 0 | CDK7 = 0 | CDK9 = 0 | CHEK2 = 0 | CSF1R 0 | CSK 0 | CSNK1A1 = 0 | CSNK1D 0 | DDR1 = 0 | DYRK1B 0 | DYRK2 = 0

Cn1nccc1Nc1nccc(-c2ccn([C@H](CO)c3ccc(Cl)c(F)c3)c(=O)c2)n1 [Ravoxertinib hydrochloride] (10 µM)
inactive: BRAF_V600E 0 | BTK 0 | CAMK2A 0 | CAMK2G 0 | CDK10 = 0 | CDK3 = 0 | CDK4 = 0 | CDK5 = 0 | CDK6 = 0 | CDK7 = 0 | CDK9 = 0 | CHEK2 = 0 | CSF1R 0 | CSK 0 | CSNK1A1 = 0 | CSNK1D 0 | DDR1 = 0 | DYRK1B 0 | DYRK2 = 0

C[C@@H]1CCN(C(=O)CC#N)C[C@@H]1N(C)c1ncnc2[nH]ccc12 [Tofacitinib] (10 µM)
inactive: BRAF_V600E 0 | CAMK2A 0 | CAMK2G 0 | CDK10 = 0 | CDK2 = 0 | CDK3 = 0 | CDK4 = 0 | CDK5 = 0 | CDK6 = 0 | CDK7 = 0 | CDK9 = 0 | CHEK2 = 0 | CSF1R 0 | CSK 0 | CSNK1A1 = 0 | DDR1 = 0 | DYRK1B 0 | DYRK2 = 0

COc1cc2c(N3CCN(C(=O)Nc4ccc(OC(C)C)cc4)CC3)ncnc2cc1OCCCN1CCCCC1 [Tandutinib] (10 µM)
inactive: BRAF_V600E 0 | BTK 0 | CAMK2A 0 | CAMK2G 0 | CDK10 = 0 | CDK2 = 0 | CDK3 = 0 | CDK4 = 0 | CDK5 = 0 | CDK6 = 0 | CDK7 = 0 | CDK9 = 0 | CHEK2 = 0 | CSK 0 | CSNK1A1 = 0 | CSNK1D 0 | DDR1 = 0 | DYRK1B 0 | DYRK2 = 0

Oc1cc(O)c2cc(O)c(-c3cc(O)c(O)c(O)c3)[o+]c2c1 [Delphinidin (chloride)] (10 µM)
inactive: BRAF_V600E 0 | BTK 0 | CAMK2A 0 | CAMK2G 0 | CDK10 = 0 | CDK2 = 0 | CDK3 = 0 | CDK4 = 0 | CDK5 = 0 | CDK6 = 0 | CDK7 = 0 | CDK9 = 0 | CHEK2 = 0 | CSF1R 0 | CSK 0 | CSNK1A1 = 0 | CSNK1D 0 | DDR1 = 0 | DYRK1B 0 | DYRK2 = 0

COc1ccc2c(OCc3nnc4ccc(-c5ccccc5)nn34)ccnc2c1 (2 µM)
inactive: BRAF_V600E 0 | BTK 0 | CAMK2A 0 | CAMK2G 0 | CDK10 = 0 | CDK2 = 0 | CDK3 = 0 | CDK4 = 0 | CDK5 = 0 | CDK6 = 0 | CDK7 = 0 | CDK9 = 0 | CHEK2 = 0 | CSF1R 0 | CSK 0 | CSNK1A1 = 0 | CSNK1D 0 | DDR1 = 0 | DYRK1B 0 | DYRK2 = 0

2 records picked at random from those above:
Cn1nccc1Nc1nccc(-c2ccn([C@H](CO)c3ccc(Cl)c(F)c3)c(=O)c2)n1 [Ravoxertinib hydrochloride] (10 µM)
inactive: BRAF_V600E 0 | BTK 0 | CAMK2A 0 | CAMK2G 0 | CDK10 = 0 | CDK3 = 0 | CDK4 = 0 | CDK5 = 0 | CDK6 = 0 | CDK7 = 0 | CDK9 = 0 | CHEK2 = 0 | CSF1R 0 | CSK 0 | CSNK1A1 = 0 | CSNK1D 0 | DDR1 = 0 | DYRK1B 0 | DYRK2 = 0

COc1ccc2c(OCc3nnc4ccc(-c5ccccc5)nn34)ccnc2c1 (2 µM)
inactive: BRAF_V600E 0 | BTK 0 | CAMK2A 0 | CAMK2G 0 | CDK10 = 0 | CDK2 = 0 | CDK3 = 0 | CDK4 = 0 | CDK5 = 0 | CDK6 = 0 | CDK7 = 0 | CDK9 = 0 | CHEK2 = 0 | CSF1R 0 | CSK 0 | CSNK1A1 = 0 | CSNK1D 0 | DDR1 = 0 | DYRK1B 0 | DYRK2 = 0
